# Results as given in PMC8319745.
# Protein sequences, listed by entry. Tags and fused reporters are not part of them.
# UniProt Q9C030: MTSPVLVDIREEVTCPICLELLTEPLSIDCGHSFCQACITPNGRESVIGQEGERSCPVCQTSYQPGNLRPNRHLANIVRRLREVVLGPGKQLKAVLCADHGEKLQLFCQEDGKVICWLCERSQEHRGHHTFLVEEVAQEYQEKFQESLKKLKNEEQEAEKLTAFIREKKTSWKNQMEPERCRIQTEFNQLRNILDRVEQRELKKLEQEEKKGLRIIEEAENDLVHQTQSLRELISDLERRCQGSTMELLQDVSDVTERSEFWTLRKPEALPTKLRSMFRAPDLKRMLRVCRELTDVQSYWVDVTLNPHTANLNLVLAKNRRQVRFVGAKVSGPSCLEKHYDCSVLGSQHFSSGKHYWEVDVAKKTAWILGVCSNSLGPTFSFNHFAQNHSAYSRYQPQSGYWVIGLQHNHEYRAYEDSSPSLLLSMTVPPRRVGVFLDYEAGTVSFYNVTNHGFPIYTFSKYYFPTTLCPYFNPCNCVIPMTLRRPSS
# No constants are given. Whether binding was seen depends on the method and setting. In cells and extracts the contact can be indirect. Some binding calls cover weakened binding; strength is not graded here. Where a sequence is shown, tags or fusion partners need not be part of it.
# Target: T1, IkB kinase ε with Flag tag (IKKε-Flag) (UniProt Q14164)
# T1 sequence: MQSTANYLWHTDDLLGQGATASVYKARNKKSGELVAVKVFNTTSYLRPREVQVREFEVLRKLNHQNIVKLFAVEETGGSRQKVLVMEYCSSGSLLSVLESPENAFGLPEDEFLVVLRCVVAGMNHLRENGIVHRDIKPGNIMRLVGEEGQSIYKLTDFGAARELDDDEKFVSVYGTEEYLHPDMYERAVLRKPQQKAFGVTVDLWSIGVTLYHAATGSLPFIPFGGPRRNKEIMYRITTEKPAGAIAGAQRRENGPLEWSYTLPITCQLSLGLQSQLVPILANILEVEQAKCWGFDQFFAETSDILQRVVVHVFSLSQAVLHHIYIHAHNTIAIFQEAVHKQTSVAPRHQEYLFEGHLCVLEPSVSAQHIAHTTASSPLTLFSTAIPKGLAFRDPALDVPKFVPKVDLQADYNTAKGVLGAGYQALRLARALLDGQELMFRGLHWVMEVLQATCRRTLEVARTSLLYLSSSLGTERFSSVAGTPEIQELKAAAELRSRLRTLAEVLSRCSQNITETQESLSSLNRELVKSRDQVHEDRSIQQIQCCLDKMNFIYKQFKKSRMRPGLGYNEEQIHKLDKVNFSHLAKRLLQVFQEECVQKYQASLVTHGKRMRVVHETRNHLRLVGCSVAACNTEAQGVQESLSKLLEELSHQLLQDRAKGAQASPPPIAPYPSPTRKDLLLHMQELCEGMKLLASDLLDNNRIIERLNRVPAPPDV
# Assay: co-IP
substance,measurement,value
tripartite motif-containing 6 (TRIM6) (from UniProt Q9C030 1-488) (enzyme),binding,binds
